Reference: article doi:10.1101/2023.07.15.549169
No constants are given. Whether binding was seen depends on the method and setting. In cells and extracts the contact can be indirect. Some results given as binding are weak or reduced against the parent protein; the word gives no strength.

By UniProt entry, the sequences of proteins in these tests, tags left out. Residues count along the entry.
UniProt Q13485, residues 319-552: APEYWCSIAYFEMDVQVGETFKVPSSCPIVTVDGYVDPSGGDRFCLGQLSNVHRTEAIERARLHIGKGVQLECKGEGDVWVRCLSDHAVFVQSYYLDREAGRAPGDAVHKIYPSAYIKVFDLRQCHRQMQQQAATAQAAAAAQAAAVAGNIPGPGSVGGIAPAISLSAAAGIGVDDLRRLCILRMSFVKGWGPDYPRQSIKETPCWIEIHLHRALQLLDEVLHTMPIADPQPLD
UniProt P84022, residues 219-425: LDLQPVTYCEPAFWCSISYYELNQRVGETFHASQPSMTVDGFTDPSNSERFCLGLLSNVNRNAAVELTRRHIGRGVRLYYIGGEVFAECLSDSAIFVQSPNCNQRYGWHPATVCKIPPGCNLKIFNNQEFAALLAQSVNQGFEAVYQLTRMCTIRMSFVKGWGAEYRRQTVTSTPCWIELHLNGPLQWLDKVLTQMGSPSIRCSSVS

Molecular target: GST-SMAD4-MH2 (UniProt Q13485)
Assay: pull-down

Venus-flag-tagged (VF) SMAD3-MH2 (from UniProt P84022 219-425) (domain or fragment)
binding: binds
